Laboratory results as given in doi:10.1101/828426.
Results are given in words; binding and its absence hold for the method and conditions named. In cells and extracts the contact can be indirect. A result given as binding can be weak or reduced; the word gives no strength.

Biological target: T1, T7-Fbxo45 (murine) (UniProt Q8K3B1)
T1 sequence: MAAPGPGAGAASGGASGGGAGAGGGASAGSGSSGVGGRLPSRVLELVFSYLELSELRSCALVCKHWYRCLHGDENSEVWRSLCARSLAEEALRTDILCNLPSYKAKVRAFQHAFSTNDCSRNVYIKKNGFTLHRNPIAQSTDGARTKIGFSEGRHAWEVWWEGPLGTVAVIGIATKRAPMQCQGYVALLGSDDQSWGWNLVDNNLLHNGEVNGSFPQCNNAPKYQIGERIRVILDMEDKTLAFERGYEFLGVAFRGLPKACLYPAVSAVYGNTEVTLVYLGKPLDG
Assay: co-IP

Substance	binding
ECad-HA (murine)	no binding
NCad EC1-2 (mouse) (domain or fragment)	binds
